No constants are given. Whether binding was seen depends on the method and setting. Some binding calls cover weakened binding; strength is not graded here.
Columns and labels:
[1] = target: T1, hek-L protein designated C6, expressed on transfected CV-1/EBNA-1 cells (UniProt P52798); assay: indirect Scatchard analysis on transfected CV-1/EBNA-1 cells
T1 sequence (looked up): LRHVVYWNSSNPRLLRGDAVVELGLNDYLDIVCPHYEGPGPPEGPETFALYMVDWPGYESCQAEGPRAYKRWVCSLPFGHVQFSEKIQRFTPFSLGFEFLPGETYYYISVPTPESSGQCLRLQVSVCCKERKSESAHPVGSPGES

The chains behind the UniProt entries cited, without tags or fusion partners. Where a name states a change or a piece, a line headed by the entry shows the natural chain unless it says otherwise.
UniProt P29320: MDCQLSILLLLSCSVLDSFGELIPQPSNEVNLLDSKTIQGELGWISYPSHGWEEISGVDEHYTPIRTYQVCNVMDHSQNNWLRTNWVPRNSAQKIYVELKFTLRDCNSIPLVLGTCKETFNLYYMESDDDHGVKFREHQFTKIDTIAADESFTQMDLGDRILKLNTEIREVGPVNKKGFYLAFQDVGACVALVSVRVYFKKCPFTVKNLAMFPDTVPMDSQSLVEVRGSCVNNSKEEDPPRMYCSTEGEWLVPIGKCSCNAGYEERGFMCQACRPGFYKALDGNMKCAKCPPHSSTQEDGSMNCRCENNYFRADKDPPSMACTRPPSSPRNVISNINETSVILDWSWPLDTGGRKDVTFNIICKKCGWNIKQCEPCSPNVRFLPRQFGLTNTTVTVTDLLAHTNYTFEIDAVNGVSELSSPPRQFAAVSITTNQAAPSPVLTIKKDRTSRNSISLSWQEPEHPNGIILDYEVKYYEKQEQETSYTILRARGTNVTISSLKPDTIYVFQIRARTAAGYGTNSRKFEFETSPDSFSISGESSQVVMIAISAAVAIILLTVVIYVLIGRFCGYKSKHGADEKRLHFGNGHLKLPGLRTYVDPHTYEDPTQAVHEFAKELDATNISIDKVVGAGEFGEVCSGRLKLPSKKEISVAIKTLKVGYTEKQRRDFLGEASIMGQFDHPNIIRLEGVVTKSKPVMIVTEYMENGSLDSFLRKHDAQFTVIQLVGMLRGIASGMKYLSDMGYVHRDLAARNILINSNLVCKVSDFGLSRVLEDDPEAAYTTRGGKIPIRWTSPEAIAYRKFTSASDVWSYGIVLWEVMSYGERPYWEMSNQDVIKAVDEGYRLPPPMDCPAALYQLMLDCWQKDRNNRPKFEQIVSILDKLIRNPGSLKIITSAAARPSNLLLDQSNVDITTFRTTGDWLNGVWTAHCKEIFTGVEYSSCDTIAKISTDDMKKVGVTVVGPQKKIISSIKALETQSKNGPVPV
UniProt P09759: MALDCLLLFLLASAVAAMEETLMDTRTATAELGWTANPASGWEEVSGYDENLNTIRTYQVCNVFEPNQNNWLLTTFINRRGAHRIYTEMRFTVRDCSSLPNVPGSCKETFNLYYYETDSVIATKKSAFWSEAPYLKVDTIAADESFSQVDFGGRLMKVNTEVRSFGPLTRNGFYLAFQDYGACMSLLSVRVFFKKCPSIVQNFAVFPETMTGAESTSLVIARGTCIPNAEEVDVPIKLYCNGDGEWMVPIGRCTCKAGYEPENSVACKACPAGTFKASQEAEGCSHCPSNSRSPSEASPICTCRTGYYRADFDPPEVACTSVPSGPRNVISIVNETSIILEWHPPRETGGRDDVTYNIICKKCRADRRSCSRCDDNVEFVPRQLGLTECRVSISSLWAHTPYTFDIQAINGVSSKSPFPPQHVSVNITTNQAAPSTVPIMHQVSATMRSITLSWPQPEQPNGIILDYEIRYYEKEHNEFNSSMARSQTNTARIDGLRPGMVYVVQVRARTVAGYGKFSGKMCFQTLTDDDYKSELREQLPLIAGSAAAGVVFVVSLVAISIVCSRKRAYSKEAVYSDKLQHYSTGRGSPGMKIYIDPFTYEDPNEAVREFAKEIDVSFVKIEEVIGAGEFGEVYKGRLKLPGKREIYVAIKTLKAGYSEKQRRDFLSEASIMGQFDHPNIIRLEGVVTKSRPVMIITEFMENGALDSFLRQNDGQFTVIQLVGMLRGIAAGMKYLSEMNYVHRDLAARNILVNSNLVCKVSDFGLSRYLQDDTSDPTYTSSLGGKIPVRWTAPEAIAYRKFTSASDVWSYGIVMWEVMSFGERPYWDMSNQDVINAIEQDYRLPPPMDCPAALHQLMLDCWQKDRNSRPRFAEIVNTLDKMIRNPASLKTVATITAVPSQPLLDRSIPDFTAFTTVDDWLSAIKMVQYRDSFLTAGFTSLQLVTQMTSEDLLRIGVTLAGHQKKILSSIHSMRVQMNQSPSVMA

[2] = target: T2, human elk ligand (elk-L), clone E7, expressed on transfected CV-1/EBNA-1 cells (human) (UniProt P98172); assay: as above
T2 sequence: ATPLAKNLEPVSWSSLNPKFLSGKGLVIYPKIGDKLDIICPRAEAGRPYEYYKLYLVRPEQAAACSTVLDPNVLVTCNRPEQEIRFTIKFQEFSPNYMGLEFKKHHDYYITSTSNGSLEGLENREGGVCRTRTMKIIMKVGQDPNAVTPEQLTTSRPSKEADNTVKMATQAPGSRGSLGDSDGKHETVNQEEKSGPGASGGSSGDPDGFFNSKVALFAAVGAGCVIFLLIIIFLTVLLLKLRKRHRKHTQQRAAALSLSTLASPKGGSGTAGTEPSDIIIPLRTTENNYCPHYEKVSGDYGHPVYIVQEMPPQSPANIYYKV

[3] = target: B61 protein expressed on transfected CV-1/EBNA-1 cells (human) (UniProt P20827); assay: as above
[4] = target: T3, hek-L protein designated A2, expressed on transfected CV-1/EBNA-1 cells (UniProt P52797); assay: as above
T3 sequence (looked up): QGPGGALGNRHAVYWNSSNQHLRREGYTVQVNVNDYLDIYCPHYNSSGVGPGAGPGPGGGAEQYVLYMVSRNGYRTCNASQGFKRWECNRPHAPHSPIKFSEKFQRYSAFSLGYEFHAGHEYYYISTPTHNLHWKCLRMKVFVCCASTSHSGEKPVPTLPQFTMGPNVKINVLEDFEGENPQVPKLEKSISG

[5] = target: T2, human elk ligand (elk-L), clone E7, expressed on transfected CV-1/EBNA-1 cells (human); assay: slide autoradiography; elk/Fc on transfected CV-1/EBNA-1 cells, detected with 125I-mouse anti-human Fc antibody
[6] = target: T2, human elk ligand (elk-L), clone E7, expressed on transfected CV-1/EBNA-1 cells (human); assay: indirect Scatchard analysis; elk/Fc titrated on transfected CV-1/EBNA-1 cells, detected with 125I-mouse anti-human IgG

Measured: binding

soluble hek/Fc fusion protein (from UniProt P29320 21-541; P01857 99-330)
binds: [1] | [2] | [3] | [4]

soluble rat elk/Fc fusion protein (from UniProt P09759 18-540; P01857 99-330)
not listed: [2]
binds: all other assays above

Source: US20040022767A1 (Genentech, published 2004)
